This passage reports binding results from paper PMC4493090.

B1: Smurf1 (199–383), two-hybrid prey (domain or fragment, UniProt Q9CUN6 199-383)
chain: ESPSQDQRLLVQRLRNPEVRGPLQTPQNRPHGHQSPELPEGYEQRTTVQGQVYFLHTQTGVSTWHDPRIPRDLNSVNCDELGPLPPGWEVRSTVSGRIYFVDHNNRTTQFTDPRLHHIMNHQCQLKEPSQPLQLPSEGSVEDEELPAQRYERDLVQKLKVLRHELSLQQPQAGHCRIEVSREEIF
B2: Kdm4c (721–800), two-hybrid prey (domain or fragment, UniProt Q8VCD7 721-800)
chain: VRVHASCYGVPSHEVCDGWLCARCKRNAWTAECCLCNLRGGALKQTKNNQWAHVICAVAVPEVRFTNVPERTQIDVDRIP
B3: Spop (33–237), two-hybrid prey (domain or fragment, UniProt Q6ZWS8 33-237)
chain: SYMWTINNFSFCREEMGEVIKSSTFSSGANDKLKWCLRVNPKGLDEESKDYLSLYLLLVSCPKSEVRAKFKFSILNAKGEETKAMESQRAYRFVQGKDWGFKKFIRRDFLLDEANGLLPDDKLTLFCEVSVVQDSVNISGQNTMNMVKVPECRLADELGGLWENSRFTDCCLCVAGQEFQAHKAILAARSPVFSAMFEHEMEESK
B4: Hipk3 (156–541), two-hybrid prey (domain or fragment, UniProt Q9ERH7 156-541)
chain: TNMGNPVTVVTATTGSKQNCTSGEGDYQLVQHEVLCSMKNTYEVLDFLGRGTFGQVVKCWKRGTNEIVAIKILKNHPSYARQGQIEVSILARLSTENADEYNFVRAYECFQHRNHTCLVFEMLEQNLYDFLKQNKFSPLPLKVIRPVLQQVATALKKLKSLGLIHADLKPENIMLVDPVRQPYRVKVIDFGSASHVSKTVCSTYLQSRYYRAPEIILGLPFCEAIDMWSLGCVIAELFLGWPLYPGALEYDQIRYISQTQGLPGEQLLNVGTKSTRFFCRETDMSHSGWRLKTLEEHEAETGMKSKEARKYIFNSLDDIVHVNTVMDLEGGDLLAEKADRREFVNLLKKMLLIDADLRITPIETLNHPFVNMKHLLDFPHSNHVKS
B5: Isl1 (106–347), two-hybrid prey (domain or fragment, UniProt P61372 106-347)
chain: RCVACSRQLIPGDEFALREDGLFCRADHDVVERASLGAGDPLSPLHPARPLQMAAEPISARQPALRPHVHKQPEKTTRVRTVLNEKQLHTLRTCYAANPRPDALMKEQLVEMTGLSPRVIRVWFQNKRCKDKKRSIMMKQLQQQQPNDKTNIQGMTGTPMVAASPERHDGGLQANPVEVQSYQPPWKVLSDFALQSDIDQPAFQQLVNFSEGGPGSNSTGSEVASMSSQLPDTPNSMVASPI
B6: Zmym2 (366–696), two-hybrid prey (domain or fragment, UniProt Q9CU65 366-696)
chain: PAPKKLCVMCKKDITTMKGTIVAQVDSSESFQEFCSTSCLSLYEDKQSPAKGALNKSRCTICGKLTEIRHEVSFKNMTHKLCSDHCFNRYRMANGLIMNCCEQCGEYLPSKGAGNNVLVVDGQQKRFCCQSCVTEYKQVGSHPSFLKEVRDHMQDSFLMQPEKYGKLTTCTGCRTQCRFFDMTQCIGPNGYMEPYCSTACMNSHKTKYAKSQSLGIICHFCKRNSLPQYQATMPDGKLYNFCNSSCVAKFQALSMQSSPNGQFVAPSDIQLKCNYCKNSFCSKPEILEWENKVHQFCSKTCSDDYKKLHCIVTYCEYCQEEKTLHETVNFS

Results are given in words; binding and its absence hold for the method and conditions named. A result given as binding can be weak or reduced; the word gives no strength.

In this test the target is Glis3(2–500)-LexA fusion protein (mouse) (UniProt F6SGN4). In words: two-hybrid; Hybrigenics screen; Glis3 N-terminus-LexA bait (pB27) against a murine pancreatic beta cell (βTC-TET) library in p6; medium without His, Leu, Trp, with 5.0 mM 3-aminotriazole.
On to B1, for which the binding result is on record as “binds”.
Consider B2, for which the binding result is recorded as “binds”.
On to B3, for which the binding result was “binds”.
B4: the binding result is on record as “binds”.
As to B5, the binding result was “binds”.
With B6, the binding result is “binds”.
